From PMC10558514
Results are given in words; binding and its absence hold for the method and conditions named. Binding seen in cells or lysates may run through a third protein. A result given as binding can be weak or reduced; the word gives no strength. Tags and fused reporters may be left off the sequences shown.

Molecular target: T1, FLAG-CTIF (UniProt O43310)
T1 sequence: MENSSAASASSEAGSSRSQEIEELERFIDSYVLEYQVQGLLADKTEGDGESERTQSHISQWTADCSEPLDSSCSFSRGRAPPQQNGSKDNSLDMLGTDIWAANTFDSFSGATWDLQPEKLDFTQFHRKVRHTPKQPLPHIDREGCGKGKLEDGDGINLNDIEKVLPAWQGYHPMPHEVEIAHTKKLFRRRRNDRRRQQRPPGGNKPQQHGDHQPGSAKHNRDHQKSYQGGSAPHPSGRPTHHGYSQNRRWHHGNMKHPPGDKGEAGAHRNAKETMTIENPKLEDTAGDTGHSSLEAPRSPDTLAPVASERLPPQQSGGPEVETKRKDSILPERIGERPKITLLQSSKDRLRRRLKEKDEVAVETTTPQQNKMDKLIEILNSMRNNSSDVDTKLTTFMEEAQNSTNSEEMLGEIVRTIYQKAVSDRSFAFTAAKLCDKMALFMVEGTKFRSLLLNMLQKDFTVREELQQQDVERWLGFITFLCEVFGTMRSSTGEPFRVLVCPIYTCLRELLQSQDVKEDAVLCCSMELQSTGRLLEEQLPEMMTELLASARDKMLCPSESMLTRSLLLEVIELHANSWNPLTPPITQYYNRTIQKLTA
Experiment: co-IP; IP of FLAG-CTIF with α-FLAG antibody from HEK293T extracts, western blot; cells undepleted or depleted of YTHDF2, with or without MG132 (Supplementary Fig. 3a, Fig. 8b)

- binding: binds
Substance: dynein motor protein (human (endogenous in HEK293T))
